The chains are these.
B1: p140Cap adaptor protein (protein, UniProt Q9QWI6 1-1250)
chain: MQPWQCLRRFALAWWERTAEGRARSPREEVGPRDPGGRGEPDPERSSPPMLSADDAEYPREYRTLGGGGGGGSGGRRFSNVGLVHTSERRHTVIAAQSLEALSGLQKADADRKRDAFMDHLKSKYPQHALALRGQQDRMREQVGGWTVDPVCLLSSLCSHLHGDSTPSGAGQPAQQPNYWSFKTRSSRHTQGAQPGLADQAAKLSYASAESLETMSEAELPLGFSRMNRFRQSLPLSRSASQTKLRSPGVLFLQFGEETRRVHITHEVSSLDTLHALIAHMFPQKLTMGMLKSPNTAILIKDEARNVFYELEDVRDIQDRSIIKIYRKEPLYAAFPGSHLTNGDLRREMVYASRESSPTRRLNNLSPASHLASSSPPPGLPSGLPSGLPSGSPSRSRLSYAGGRPPSYAGSPVHHAAERLGGAPTGQGVSPSPSAILERRDVKPDEDLAGKAGGMVLVKGEGLYADPYGLLHEGRLSLAAAAETHSHTRARAACTSGVPCALSAPTPLPRCSPTWRTRCTRRALAALYGDGYGFRLPPSSPQKLADVSAPSGGPPPPHSPYSGPPSRGSPVRQSFRKDSGSSSVFAESPGGKARSTGSASTAGAPPSELFPGPGERSLVGFGPPVPAKDTETRERMEAMEKQIASLTGLVQSALLRGSEPETPSEKVEGSNGAATPSAPVCGSGSKSSGATPVSGPPPPSASSTPAGQPTAVSRLQMQLHLRGLQNSASDLRGQLQQLRNVQLQNQESVRALLKPTEADVSMRVSEAARRQEDPLQRQRTLVEEERLRYLNDEELITQQLNDLEKSVEKIQRDVAHNHRLMPGPELEEKALVLKQLGETLTELKAHFPGLQSKMRVVLRVEVEAVKFLKEEPQRLDGLLKRCRGVTDTLAQIRRQVDEGMWPPPNNLLNQSPKKVAAETDFSKGLDFEIPPPSPPLNLHELSGPAEGTPLTPKSTNPTKCLDASSKRNTDKAVSVEAAERDWEEKRAALTQYSAKDINRLLEETQAELLKAIPDLDCASKTHPGPAPTPDHKPPKAPHGQKAAPRTEPSGRRGSDELTVPRYRTEKPSKSPPPPPPRRSFPSSHGLTTTRTGEVVVTSKKDSVFIKKAESEELEVQKPQVKLRRAVSEVVRPASTPPIMASAIKDEDDEERIIAELESGGSSVPPMKVVTPGASRLKAAQGPAGSPDKGKHGKQRTEYMRIQAQQQATKPSKEVSGPNETSSPGSEKPSGSRTSIPVLTSFGARNSSISF
B2: Catenin delta-1 (protein, UniProt P30999 1-938)
chain: MDDSEVESTASILASVKEQEAQFEKLTRALEEERRHVSAQLERVRVSPQDANSLMANGTLTRRHQNGRFVGDADLERQKFSDLKLNGPQDHNHLLYSTIPRMQEPGQIVETYTEEDPEGAMSVVSVETTDDGTTRRTETTVKKVVKTMTTRTVQPVPMGPDGLPVDASAVSNNYIQTLGRDFRKNGNGGPGPYVGQAGTATLPRNFHYPPDGYGRHYEDGYPGGSDNYGSLSRVTRIEERYRPSMEGYRAPSRQDVYGPQPQVRVGGSSVDLHRFHPEPYGLEDDQRSMGYDDLDYGMMSDYGTARRTGTPSDPRRRLRSYEDMIGEEVPPDQYYWAPLAQHERGSLASLDSLRKGMPPPSNWRQPELPEVIAMLGFRLDAVKSNAAAYLQHLCYRNDKVKTDVRKLKGIPILVGLLDHPKKEVHLGACGALKNISFGRDQDNKIAIKNCDGVPALVRLLRKARDMDLTEVITGTLWNLSSHDSIKMEIVDHALHALTDEVIIPHSGWEREPNEDCKPRHIEWESVLTNTAGCLRNVSSERSEARRKLRECDGLVDALIFIVQAEIGQKDSDSKLVENCVCLLRNLSYQVHREIPQAERYQEALPTVANSTGPHAASCFGAKKGKDEWFSRGKKPTEDPANDTVDFPKRTSPARGYELLFQPEVVRIYISLLKESKTPAILEASAGAIQNLCAGRWTYGRYIRSALRQEKALSAIAELLTSEHERVVKAASGALRNLAVDARNKELIGKHAIPNLVKNLPGGQQNSSWNFSEDTVVSILNTINEVIAENLEAAKKLRETQGIEKLVLINKSGNRSEKEVRAAALVLQTIWGYKELRKPLEKEGWKKSDFQVNLNNASRSQSSHSYDDSTLPLIDRNQKSDKKPDREEIPMSNMGSNTKSLDNNYSTLNERGDHNRTLDRSGDLGDMEPLKGAPLMQKI
B3: Tectonin beta-propeller repeat-containing protein 1 (protein, UniProt Q80VP0 1-1166)
chain: MPTSVLWAVDLFGRVYTLSTAGQYWELCKDVQLEFKRVSAATQCCWGIAGDNQVYLYVCSSDVPIRHREEAYENQRWNPMGGFCEKLLPSDRWPWSDVSGLQHRPLDGVALPSPHWEWESDWYVDENFGGEPTEKGGWTYAMDFPATYTRDKKWNSCVRRRKWIRYRRYKSRDSWAKIPSKDDPKELPDPFNDLSVGGWEITEEPVGRLSVWAVSLQGKVWYREDVSHPNPEGSSWSLVETPGEVVQISCGPHDLIWATLWEGQALVREGVCRNNPKGSYWSMVEPPGSENGIMHVSAGVSVVWAITKDRKVWFRRGVNSHNPCGTSWIEMVGEMTMVNVGLNDQVWGISCEDRAVYFRQGVTPSELSGKTWKAIVVGRESDRSHSGSSSSLLSAGCFFGDEVRGSGTESAPSDTDASLEVERQGPEQPLPKEALDNSTNLKGSLSKGHETSGNTDHSTENACLTEGKEKAPETSRSDECRGPASTPAELPWTNIDLKEPKKVSNQPAAGFPETAGLSSLGLFPMGMEEPYGADDHPLWAWVSGGACAVEAGSTLKWFTIQSGLSPSVQTLSLSITPAQTAAWRKQIFQQLTERTKRELESFRHYEQAVEQSVWVKTGALQWWCDWKPHKWVDVRVALEQFTGHDGARDSILFIYYVVHEEKKYLHVFLNEVTVLVPVLNEAKHSFALYTPERTRQRWPVRLAAATEQDMNDWLALLSLSCCESRKVHGRPSPQAIWSVTCKGDIFVSEPSPDLEARERLLPCDQMFWRQMGGHLRIIEANSRGVVWGIGYDHTAWVYTGGYGGGCFQGLASSTSNIYTQSDVKSVYIYENQRWNPVTGYTSRGLPTDRFMWSDVTGLQECTKAGTKPPSLQWTWVSDWYVDFSVPGGTDQEGWQYASDFPASYHGYKTMKDFVRRRCWARKCKLVTSGPWLEVAPITLSDVSIIPESAHADGRGHNVALWAVSDKGDVLCRLGVSELNPAGSSWLHVGTDQPFASVSIGACYQVWAVARDGSAFYRGSVSPSQPAGDCWYHIPSPPKQKLTQVSVGQTSVYALDENGNLWYRAGITPSYPQGSSWEHVSNNVRKVSVGPLDQVWVIANKVQGSHGLSRGTVCRRMGVQPREPKGQGWDYGIGGGWDHISVRANATRVPRNMSRDREARGPGPVCC

Amino acid sequences for entries named in this document (tags omitted). Residues count along the entry.
UniProt P09803, residues 157-884: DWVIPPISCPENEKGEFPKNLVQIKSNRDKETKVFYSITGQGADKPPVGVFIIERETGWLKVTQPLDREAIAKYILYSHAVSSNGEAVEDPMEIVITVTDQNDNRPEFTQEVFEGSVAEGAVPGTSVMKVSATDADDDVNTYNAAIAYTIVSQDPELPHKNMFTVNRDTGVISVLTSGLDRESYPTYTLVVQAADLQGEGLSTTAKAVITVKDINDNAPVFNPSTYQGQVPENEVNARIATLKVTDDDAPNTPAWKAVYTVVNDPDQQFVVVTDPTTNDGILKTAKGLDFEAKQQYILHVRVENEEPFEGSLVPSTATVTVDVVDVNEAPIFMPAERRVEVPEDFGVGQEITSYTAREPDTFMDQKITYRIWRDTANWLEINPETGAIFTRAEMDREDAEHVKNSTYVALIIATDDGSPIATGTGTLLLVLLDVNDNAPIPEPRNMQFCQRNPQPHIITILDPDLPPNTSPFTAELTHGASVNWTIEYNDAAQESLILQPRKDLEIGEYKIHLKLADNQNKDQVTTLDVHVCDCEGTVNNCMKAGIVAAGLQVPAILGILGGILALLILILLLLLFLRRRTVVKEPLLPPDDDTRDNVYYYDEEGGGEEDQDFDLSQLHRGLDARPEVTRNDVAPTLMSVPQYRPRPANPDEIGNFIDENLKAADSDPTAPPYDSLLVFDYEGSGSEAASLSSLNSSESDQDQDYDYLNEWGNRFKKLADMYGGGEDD
UniProt P26231: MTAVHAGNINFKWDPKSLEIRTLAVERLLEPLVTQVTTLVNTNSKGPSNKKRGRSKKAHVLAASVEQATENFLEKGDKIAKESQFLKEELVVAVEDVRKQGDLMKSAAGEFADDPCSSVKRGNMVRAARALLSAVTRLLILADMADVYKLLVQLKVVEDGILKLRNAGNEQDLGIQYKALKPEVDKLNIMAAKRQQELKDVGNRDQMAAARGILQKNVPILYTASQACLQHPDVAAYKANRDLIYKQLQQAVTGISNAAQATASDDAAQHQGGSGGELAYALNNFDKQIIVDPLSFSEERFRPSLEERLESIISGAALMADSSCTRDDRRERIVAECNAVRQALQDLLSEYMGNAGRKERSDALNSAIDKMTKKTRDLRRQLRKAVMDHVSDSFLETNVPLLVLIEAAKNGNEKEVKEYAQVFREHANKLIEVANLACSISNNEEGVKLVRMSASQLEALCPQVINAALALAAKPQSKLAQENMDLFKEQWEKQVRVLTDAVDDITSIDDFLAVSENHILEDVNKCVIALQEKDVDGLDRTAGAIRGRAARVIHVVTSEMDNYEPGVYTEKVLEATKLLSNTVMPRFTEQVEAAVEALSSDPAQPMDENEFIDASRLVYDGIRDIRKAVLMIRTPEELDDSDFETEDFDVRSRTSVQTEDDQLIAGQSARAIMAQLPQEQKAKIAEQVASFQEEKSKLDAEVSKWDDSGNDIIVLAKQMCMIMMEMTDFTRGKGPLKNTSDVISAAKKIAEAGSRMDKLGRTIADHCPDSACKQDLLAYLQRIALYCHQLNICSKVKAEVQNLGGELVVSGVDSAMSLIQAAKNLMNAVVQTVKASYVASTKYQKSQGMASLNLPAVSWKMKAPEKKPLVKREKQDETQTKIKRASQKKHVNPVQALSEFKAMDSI
UniProt Q02248: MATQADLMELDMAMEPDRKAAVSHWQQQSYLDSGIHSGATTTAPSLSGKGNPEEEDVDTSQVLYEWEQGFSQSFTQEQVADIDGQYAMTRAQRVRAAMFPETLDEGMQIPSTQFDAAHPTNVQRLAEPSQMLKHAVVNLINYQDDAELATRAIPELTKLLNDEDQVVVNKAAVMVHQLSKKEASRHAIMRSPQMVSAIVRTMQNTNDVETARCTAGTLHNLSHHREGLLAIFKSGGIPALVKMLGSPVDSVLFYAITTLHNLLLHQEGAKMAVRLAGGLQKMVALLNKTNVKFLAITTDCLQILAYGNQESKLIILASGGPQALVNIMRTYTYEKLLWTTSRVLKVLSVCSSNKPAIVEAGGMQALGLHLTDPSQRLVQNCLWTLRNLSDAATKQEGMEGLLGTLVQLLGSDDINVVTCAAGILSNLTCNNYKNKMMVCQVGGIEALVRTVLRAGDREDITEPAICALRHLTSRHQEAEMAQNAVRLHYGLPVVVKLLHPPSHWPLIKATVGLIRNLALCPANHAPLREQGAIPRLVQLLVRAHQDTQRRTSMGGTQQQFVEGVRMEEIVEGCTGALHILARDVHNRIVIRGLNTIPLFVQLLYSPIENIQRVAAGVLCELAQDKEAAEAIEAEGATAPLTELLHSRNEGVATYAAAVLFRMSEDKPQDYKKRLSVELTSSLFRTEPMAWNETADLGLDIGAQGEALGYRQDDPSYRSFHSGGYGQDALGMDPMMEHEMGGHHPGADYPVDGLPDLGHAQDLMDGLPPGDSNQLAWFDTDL
UniProt Q9JKF1: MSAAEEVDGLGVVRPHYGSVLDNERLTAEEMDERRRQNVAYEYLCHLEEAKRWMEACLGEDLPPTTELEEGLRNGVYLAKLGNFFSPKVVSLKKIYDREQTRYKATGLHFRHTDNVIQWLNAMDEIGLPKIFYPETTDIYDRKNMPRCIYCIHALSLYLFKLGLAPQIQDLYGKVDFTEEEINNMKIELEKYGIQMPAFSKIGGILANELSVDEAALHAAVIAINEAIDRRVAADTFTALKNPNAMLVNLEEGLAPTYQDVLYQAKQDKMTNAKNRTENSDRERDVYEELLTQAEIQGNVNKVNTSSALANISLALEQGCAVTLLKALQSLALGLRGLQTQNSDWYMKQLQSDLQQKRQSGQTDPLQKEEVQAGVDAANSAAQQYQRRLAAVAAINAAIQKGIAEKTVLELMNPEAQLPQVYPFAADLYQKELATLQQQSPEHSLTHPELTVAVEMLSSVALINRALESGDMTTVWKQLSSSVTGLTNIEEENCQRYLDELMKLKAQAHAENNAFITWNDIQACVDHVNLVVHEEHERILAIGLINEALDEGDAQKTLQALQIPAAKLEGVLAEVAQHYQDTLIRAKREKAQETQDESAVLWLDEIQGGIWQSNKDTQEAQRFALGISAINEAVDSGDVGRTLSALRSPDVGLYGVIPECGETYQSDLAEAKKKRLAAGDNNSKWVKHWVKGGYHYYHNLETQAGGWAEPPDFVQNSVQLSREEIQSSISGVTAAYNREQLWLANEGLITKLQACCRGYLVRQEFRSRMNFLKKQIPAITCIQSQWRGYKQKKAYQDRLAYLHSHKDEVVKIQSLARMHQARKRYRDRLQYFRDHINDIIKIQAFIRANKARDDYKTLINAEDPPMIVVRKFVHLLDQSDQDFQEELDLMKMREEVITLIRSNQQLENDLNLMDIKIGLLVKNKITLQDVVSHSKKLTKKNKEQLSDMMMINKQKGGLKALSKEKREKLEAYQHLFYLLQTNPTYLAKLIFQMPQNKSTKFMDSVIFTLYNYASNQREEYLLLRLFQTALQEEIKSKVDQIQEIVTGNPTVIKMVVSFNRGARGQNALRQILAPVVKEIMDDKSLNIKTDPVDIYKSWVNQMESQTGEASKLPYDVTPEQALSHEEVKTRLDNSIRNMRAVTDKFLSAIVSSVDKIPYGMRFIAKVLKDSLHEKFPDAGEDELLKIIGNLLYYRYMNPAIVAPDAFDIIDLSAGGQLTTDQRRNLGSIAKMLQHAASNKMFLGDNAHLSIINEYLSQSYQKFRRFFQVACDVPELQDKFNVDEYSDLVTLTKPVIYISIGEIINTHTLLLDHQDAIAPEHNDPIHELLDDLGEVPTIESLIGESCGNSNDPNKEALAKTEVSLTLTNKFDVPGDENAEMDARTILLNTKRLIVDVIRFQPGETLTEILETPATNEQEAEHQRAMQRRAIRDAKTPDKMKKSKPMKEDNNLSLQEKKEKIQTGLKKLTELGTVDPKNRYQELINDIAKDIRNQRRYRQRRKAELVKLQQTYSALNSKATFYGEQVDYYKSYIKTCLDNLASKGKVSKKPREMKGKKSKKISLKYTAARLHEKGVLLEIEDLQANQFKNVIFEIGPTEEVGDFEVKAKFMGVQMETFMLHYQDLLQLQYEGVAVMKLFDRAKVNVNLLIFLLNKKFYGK
UniProt A2AQ25: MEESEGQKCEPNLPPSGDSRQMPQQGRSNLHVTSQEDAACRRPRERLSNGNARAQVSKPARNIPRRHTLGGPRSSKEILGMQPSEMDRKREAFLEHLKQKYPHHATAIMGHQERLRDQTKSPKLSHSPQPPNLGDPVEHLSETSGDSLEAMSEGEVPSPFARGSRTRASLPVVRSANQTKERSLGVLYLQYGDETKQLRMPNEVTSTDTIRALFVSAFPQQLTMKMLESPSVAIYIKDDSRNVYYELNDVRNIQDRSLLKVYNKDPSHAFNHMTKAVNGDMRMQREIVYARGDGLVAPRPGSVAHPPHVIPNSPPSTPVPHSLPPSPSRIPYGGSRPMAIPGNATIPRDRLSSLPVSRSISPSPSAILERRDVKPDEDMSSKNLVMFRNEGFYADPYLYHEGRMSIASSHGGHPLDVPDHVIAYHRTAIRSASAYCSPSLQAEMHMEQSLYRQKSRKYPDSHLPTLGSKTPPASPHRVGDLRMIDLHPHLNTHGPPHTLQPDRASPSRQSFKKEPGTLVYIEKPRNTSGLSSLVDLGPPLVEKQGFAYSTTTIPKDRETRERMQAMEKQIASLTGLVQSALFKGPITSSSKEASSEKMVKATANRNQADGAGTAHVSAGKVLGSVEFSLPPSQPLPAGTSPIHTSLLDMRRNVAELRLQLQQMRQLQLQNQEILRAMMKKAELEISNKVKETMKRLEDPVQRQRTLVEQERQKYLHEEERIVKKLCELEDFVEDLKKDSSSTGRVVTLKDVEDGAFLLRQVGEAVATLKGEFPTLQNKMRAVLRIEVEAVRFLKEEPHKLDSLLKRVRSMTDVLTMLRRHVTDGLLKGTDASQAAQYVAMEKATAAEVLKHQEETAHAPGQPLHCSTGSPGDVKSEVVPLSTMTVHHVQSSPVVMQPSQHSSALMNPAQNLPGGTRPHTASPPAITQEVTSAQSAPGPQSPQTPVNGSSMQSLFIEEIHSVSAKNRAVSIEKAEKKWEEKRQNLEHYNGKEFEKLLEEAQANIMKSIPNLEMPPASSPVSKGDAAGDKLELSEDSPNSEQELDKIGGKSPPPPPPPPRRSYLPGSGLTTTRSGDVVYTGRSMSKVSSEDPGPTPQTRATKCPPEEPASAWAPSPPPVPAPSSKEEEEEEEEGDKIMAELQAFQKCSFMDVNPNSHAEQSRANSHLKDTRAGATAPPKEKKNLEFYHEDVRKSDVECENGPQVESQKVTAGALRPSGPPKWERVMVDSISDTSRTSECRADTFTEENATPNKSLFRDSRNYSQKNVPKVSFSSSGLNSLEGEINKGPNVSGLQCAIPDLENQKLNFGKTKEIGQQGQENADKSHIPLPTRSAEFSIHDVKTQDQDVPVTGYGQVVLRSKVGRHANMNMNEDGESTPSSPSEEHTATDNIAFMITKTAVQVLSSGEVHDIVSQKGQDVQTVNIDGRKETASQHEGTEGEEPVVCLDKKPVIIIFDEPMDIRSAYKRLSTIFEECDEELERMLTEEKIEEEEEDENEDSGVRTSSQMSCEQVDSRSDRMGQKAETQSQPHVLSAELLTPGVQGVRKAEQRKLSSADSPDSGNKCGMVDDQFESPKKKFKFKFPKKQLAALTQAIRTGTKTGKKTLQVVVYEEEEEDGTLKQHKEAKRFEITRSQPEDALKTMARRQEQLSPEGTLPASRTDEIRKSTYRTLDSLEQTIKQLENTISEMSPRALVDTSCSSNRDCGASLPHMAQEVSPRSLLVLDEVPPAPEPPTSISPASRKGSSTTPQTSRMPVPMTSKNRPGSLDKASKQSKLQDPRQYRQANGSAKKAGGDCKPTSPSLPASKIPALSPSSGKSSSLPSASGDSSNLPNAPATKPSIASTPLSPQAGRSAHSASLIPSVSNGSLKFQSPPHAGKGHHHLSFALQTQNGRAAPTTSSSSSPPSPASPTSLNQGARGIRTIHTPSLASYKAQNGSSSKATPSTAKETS

No constants are given. Whether binding was seen depends on the method and setting. Binding seen in cells or lysates may run through a third protein. Some entries that bind do so weakly or less than the wild type.

The target in the first assay is Cadherin-1 (mouse (endogenous in TUBO cells)) (UniProt P09803). The experiment in a line: co-IP; reverse: E-cadherin immunoprecipitated, Western blot for p140Cap. (In general: Immunoblotting shows a protein as a band on a membrane.)
For B1, the binding result is listed as “binds”.

For the next assay, the target named is T1, p140Cap adaptor protein (UniProt Q9QWI6).
T1 sequence: B1 chain
The experiment in a line: co-IP; p140Cap immunoprecipitates (p140Cap Mab on protein G Dynabeads) from p140 and mock TUBO cell extracts, Western blot with specific antibodies.
For “Cadherin-1 (from UniProt P09803 157-884)”, the binding result is “binds”.

For the molecule “Catenin alpha-1 (from UniProt P26231 1-906)”, the binding entry was “binds”.

Turning to “Catenin beta-1 (from UniProt Q02248 1-781)”, the binding result is “binds”.

Take “Ras GTPase-activating-like protein IQGap1 (from UniProt Q9JKF1 1-1657)”: the binding entry was “binds”.

For the molecule “Sickle tail protein (from UniProt A2AQ25 1-1946)”, the binding result is “binds”.

On to B2, for which the binding result is listed as “binds”.

For the molecule B3, the binding result is “binds”.
